Data from the primary screen of doi:10.1371/journal.pone.0140310, rounded.

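The test systems are human melanoma cell lines, treated with two drugs together for 72 h and then stained and imaged. Each value is the cleaved-PARP-positive fraction of nuclei relative to DMSO-treated wells, in %, so that 100 equals the control and higher values mean more apoptosis. Every drug was used at one fixed concentration, the higher of two screened. No replicate spread is given; individual values may be noisy. Basal and induced levels differ widely between cell lines.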 Only some of the drugs and lines screened are listed, without regard to their results. An entry leaves out what has no value listed here.

Drug key:
dovitinib (0.5 µM): CN1CCN(c2ccc3nc(-c4c(N)c5c(F)cccc5[nH]c4=O)[nH]c3c2)CC1
darinaparsin (2 µM): C[As](C)SC[C@H](NC(=O)CC[C@H](N)C(=O)O)C(=O)NCC(=O)O
CP-690550 (5 µM): C[C@@H]1CCN(C(=O)CC#N)C[C@@H]1N(C)c1ncnc2[nH]ccc12
GW441756 (2 µM): Cn1cc(/C=C2\C(=O)Nc3cccnc32)c2ccccc21
pazopanib (2 µM): Cc1ccc(Nc2nccc(N(C)c3ccc4c(C)n(C)nc4c3)n2)cc1S(N)(=O)=O
BI-78D3 (1 µM): O=c1[nH]nc(Sc2ncc([N+](=O)[O-])s2)n1-c1ccc2c(c1)OCCO2
nilotinib (1 µM): Cc1cn(-c2cc(NC(=O)c3ccc(C)c(Nc4nccc(-c5cccnc5)n4)c3)cc(C(F)(F)F)c2)cn1
STA-4783 (0.03 µM): CN(NC(=O)CC(=O)NN(C)C(=S)c1ccccc1)C(=S)c1ccccc1
indole-3-carbinol (4 µM): OCc1c[nH]c2ccccc12
MK-1775 (0.1 µM): C=CCn1c(=O)c2cnc(Nc3ccc(N4CCN(C)CC4)cc3)nc2n1-c1cccc(C(C)(C)O)n1
PD173074 (0.5 µM): CCN(CC)CCCCNc1ncc2cc(-c3cc(OC)cc(OC)c3)c(NC(=O)NC(C)(C)C)nc2n1
lenalidomide (5 µM): Nc1cccc2c1CN(C1CCC(=O)NC1=O)C2=O (stereo unspecified)
vincristine (0.0005 µM): CC[C@]1(O)C[C@H]2CN(CCc3c([nH]c4ccccc34)[C@@](C(=O)OC)(c3cc4c(cc3OC)N(C=O)[C@H]3[C@@](O)(C(=O)OC)[C@H](OC(C)=O)[C@]5(CC)C=CCN6CC[C@]43[C@@H]65)C2)C1
selumetinib (0.075 µM): Cn1cnc2c(F)c(Nc3ccc(Br)cc3Cl)c(C(=O)NOCCO)cc21
PF-562271 (0.4 µM): CN(c1ncccc1CNc1nc(Nc2ccc3c(c2)CC(=O)N3)ncc1C(F)(F)F)S(C)(=O)=O
cisplatin (8 µM): N.N.[Cl][Pt][Cl]
enzastaurin (4 µM): Cn1cc(C2=C(c3cn(C4CCN(Cc5ccccn5)CC4)c4ccccc34)C(=O)NC2=O)c2ccccc21
vorinostat (0.4 µM): O=C(CCCCCCC(=O)Nc1ccccc1)NO
cediranib (2 µM): COc1cc2c(Oc3ccc4[nH]c(C)cc4c3F)ncnc2cc1OCCCN1CCCC1

* cediranib and CP-690550 : SK-MEL-5: 116; MEL-HO: 137; IST-MEL1: 74.1; SK-MEL-2: 71.6; WM3619: 124; SK-MEL-28: 76.3; UACC-62: 159; A2058: 21.5
* darinaparsin and lenalidomide : SK-MEL-5: 132; MEL-HO: 41.0; IST-MEL1: 354; SK-MEL-2: 112; WM3619: 106; SK-MEL-28: 27.1; UACC-62: 193; A2058: 78.4
* enzastaurin and MK-1775 : SK-MEL-5: 299; MEL-HO: 61.9; IST-MEL1: 65.9; SK-MEL-2: 123; WM3619: 157; SK-MEL-28: 410; UACC-62: 135; A2058: 186
* dovitinib and STA-4783 : SK-MEL-5: 44.6; MEL-HO: 177; IST-MEL1: 207; SK-MEL-2: 95.4; WM3619: 1630; SK-MEL-28: 190; UACC-62: 145; A2058: 3380
* PF-562271 and cisplatin : SK-MEL-5: 274; MEL-HO: 78.0; IST-MEL1: 64.2; SK-MEL-2: 125; WM3619: 107; SK-MEL-28: 144; UACC-62: 205; A2058: 160
* GW441756 and indole-3-carbinol : SK-MEL-5: 72.3; MEL-HO: 132; IST-MEL1: 127; SK-MEL-2: 28.3; WM3619: 118; SK-MEL-28: 89.1; UACC-62: 179; A2058: 104
* darinaparsin and MK-1775 : SK-MEL-5: 215; MEL-HO: 264; IST-MEL1: 162; SK-MEL-2: 168; WM3619: 248; SK-MEL-28: 383; UACC-62: 130; A2058: 222
* GW441756 and cediranib : SK-MEL-5: 126; MEL-HO: 80.4; IST-MEL1: 166; SK-MEL-2: 13.8; WM3619: 177; SK-MEL-28: 39.0; UACC-62: 359; A2058: 146
* pazopanib and lenalidomide : SK-MEL-5: 43.7; MEL-HO: 114; IST-MEL1: 151; SK-MEL-2: 85.2; WM3619: 143; SK-MEL-28: 76.4; UACC-62: 121; A2058: 137
* selumetinib and darinaparsin : SK-MEL-5: 223; MEL-HO: 60.1; IST-MEL1: 41.9; SK-MEL-2: 218; WM3619: 114; SK-MEL-28: 93.1; UACC-62: 232; A2058: 106
* CP-690550 and PF-562271 : SK-MEL-5: 91.2; MEL-HO: 62.7; IST-MEL1: 192; SK-MEL-2: 83.4; WM3619: 86.9; SK-MEL-28: 62.8; UACC-62: 186; A2058: 89.0
* PD173074 and selumetinib : SK-MEL-5: 232; MEL-HO: 141; IST-MEL1: 141; SK-MEL-2: 194; WM3619: 129; SK-MEL-28: 154; UACC-62: 202; A2058: 96.0
* dovitinib and MK-1775 : SK-MEL-5: 440; MEL-HO: 95.2; IST-MEL1: 256; SK-MEL-2: 148; WM3619: 199; SK-MEL-28: 185; UACC-62: 141; A2058: 686
* BI-78D3 and MK-1775 : SK-MEL-5: 192; MEL-HO: 71.9; IST-MEL1: 43.6; WM3619: 206; SK-MEL-28: 64.5; UACC-62: 159; A2058: 101
* PD173074 and nilotinib : SK-MEL-5: 160; MEL-HO: 83.8; IST-MEL1: 106; SK-MEL-2: 99.4; WM3619: 91.1; SK-MEL-28: 70.4; UACC-62: 155; A2058: 130
* selumetinib and lenalidomide : SK-MEL-5: 151; MEL-HO: 105; IST-MEL1: 44.2; SK-MEL-2: 245; WM3619: 184; SK-MEL-28: 29.9; UACC-62: 264; A2058: 99.9
* cisplatin and lenalidomide : SK-MEL-5: 78.4; MEL-HO: 70.4; IST-MEL1: 53.9; SK-MEL-2: 126; WM3619: 114; SK-MEL-28: 175; UACC-62: 122; A2058: 117
* PD173074 and PF-562271 : SK-MEL-5: 92.0; MEL-HO: 155; IST-MEL1: 49.3; SK-MEL-2: 82.6; WM3619: 85.8; SK-MEL-28: 52.9; UACC-62: 218; A2058: 118
* darinaparsin and dovitinib : SK-MEL-5: 197; MEL-HO: 155; IST-MEL1: 88.2; SK-MEL-2: 260; WM3619: 122; SK-MEL-28: 85.2; UACC-62: 159; A2058: 315
* nilotinib and STA-4783 : SK-MEL-5: 351; MEL-HO: 81.7; IST-MEL1: 842; SK-MEL-2: 187; WM3619: 1150; SK-MEL-28: 106; UACC-62: 118; A2058: 4020
* indole-3-carbinol and cisplatin : SK-MEL-5: 124; MEL-HO: 54.6; IST-MEL1: 65.2; SK-MEL-2: 99.3; WM3619: 97.6; SK-MEL-28: 152; UACC-62: 112; A2058: 100
* MK-1775 and STA-4783 : SK-MEL-5: 186; MEL-HO: 90.9; IST-MEL1: 519; SK-MEL-2: 103; WM3619: 783; SK-MEL-28: 682; UACC-62: 123; A2058: 1370
* cediranib and vorinostat : SK-MEL-5: 134; MEL-HO: 76.7; IST-MEL1: 54.2; SK-MEL-2: 135; WM3619: 85.1; SK-MEL-28: 236; UACC-62: 164; A2058: 38.0
* vincristine and pazopanib : SK-MEL-5: 85.5; MEL-HO: 85.1; IST-MEL1: 175; SK-MEL-2: 93.2; WM3619: 181; SK-MEL-28: 94.8; UACC-62: 246; A2058: 382
* darinaparsin and enzastaurin : SK-MEL-5: 171; MEL-HO: 83.1; IST-MEL1: 262; SK-MEL-2: 459; WM3619: 95.2; SK-MEL-28: 322; UACC-62: 293; A2058: 304
* vincristine and cisplatin : SK-MEL-5: 169; MEL-HO: 181; IST-MEL1: 179; SK-MEL-2: 162; WM3619: 95.0; SK-MEL-28: 110; UACC-62: 76.7; A2058: 116
* vorinostat and nilotinib : SK-MEL-5: 44.7; MEL-HO: 72.6; IST-MEL1: 140; SK-MEL-2: 213; WM3619: 101; SK-MEL-28: 152; UACC-62: 173; A2058: 37.6
* BI-78D3 and selumetinib : SK-MEL-5: 244; MEL-HO: 133; IST-MEL1: 301; SK-MEL-2: 514; WM3619: 147; SK-MEL-28: 40.1; UACC-62: 315; A2058: 148
* vincristine and darinaparsin : SK-MEL-5: 4400; MEL-HO: 93.8; IST-MEL1: 204; SK-MEL-2: 1350; WM3619: 240; SK-MEL-28: 311; UACC-62: 280; A2058: 3270
* vincristine and vorinostat : SK-MEL-5: 45.5; MEL-HO: 79.8; IST-MEL1: 60.6; SK-MEL-2: 100; WM3619: 162; SK-MEL-28: 311; UACC-62: 190; A2058: 55.3
* lenalidomide and BI-78D3 : SK-MEL-5: 203; MEL-HO: 142; IST-MEL1: 71.0; SK-MEL-2: 171; WM3619: 110; SK-MEL-28: 58.2; UACC-62: 139; A2058: 112
* dovitinib and vincristine : SK-MEL-5: 743; MEL-HO: 118; IST-MEL1: 252; SK-MEL-2: 506; WM3619: 228; SK-MEL-28: 270; UACC-62: 319; A2058: 2010
* PF-562271 and pazopanib : SK-MEL-5: 86.6; MEL-HO: 85.7; IST-MEL1: 151; SK-MEL-2: 152; WM3619: 116; SK-MEL-28: 28.7; UACC-62: 204; A2058: 90.9
* enzastaurin and selumetinib : SK-MEL-5: 202; MEL-HO: 41.8; IST-MEL1: 151; SK-MEL-2: 353; WM3619: 136; SK-MEL-28: 51.5; UACC-62: 419; A2058: 166
* dovitinib and vorinostat : SK-MEL-5: 182; MEL-HO: 98.1; IST-MEL1: 344; SK-MEL-2: 262; WM3619: 133; SK-MEL-28: 189; UACC-62: 146; A2058: 650
* PD173074 and BI-78D3 : SK-MEL-5: 118; MEL-HO: 63.9; IST-MEL1: 60.8; SK-MEL-2: 46.7; WM3619: 110; SK-MEL-28: 36.1; UACC-62: 220; A2058: 169
* vorinostat and STA-4783 : SK-MEL-5: 1400; MEL-HO: 80.6; IST-MEL1: 131; SK-MEL-2: 51.6; WM3619: 628; SK-MEL-28: 318; UACC-62: 136; A2058: 2220
* CP-690550 and darinaparsin : SK-MEL-5: 30.4; MEL-HO: 62.4; IST-MEL1: 96.3; SK-MEL-2: 103; WM3619: 131; SK-MEL-28: 190; UACC-62: 123; A2058: 133

Once more, the final 2:

- vorinostat and STA-4783 : SK-MEL-5: 1400; MEL-HO: 80.6; IST-MEL1: 131; SK-MEL-2: 51.6; WM3619: 628; SK-MEL-28: 318; UACC-62: 136; A2058: 2220
- CP-690550 and darinaparsin : SK-MEL-5: 30.4; MEL-HO: 62.4; IST-MEL1: 96.3; SK-MEL-2: 103; WM3619: 131; SK-MEL-28: 190; UACC-62: 123; A2058: 133